Source: US20250353909A1 (IMCHECK THERAPEUTICS, published 2025)
Results are given in words; binding and its absence hold for the method and conditions named. Some results given as binding are weak or reduced against the parent protein; the word gives no strength.

Sequences of proteins named here, by UniProt entry; tags and fusion partners are left off. A change or cut given only in a name is not applied to a line headed by its entry. Residues count along the entry.
UniProt O00481, residues 30-513: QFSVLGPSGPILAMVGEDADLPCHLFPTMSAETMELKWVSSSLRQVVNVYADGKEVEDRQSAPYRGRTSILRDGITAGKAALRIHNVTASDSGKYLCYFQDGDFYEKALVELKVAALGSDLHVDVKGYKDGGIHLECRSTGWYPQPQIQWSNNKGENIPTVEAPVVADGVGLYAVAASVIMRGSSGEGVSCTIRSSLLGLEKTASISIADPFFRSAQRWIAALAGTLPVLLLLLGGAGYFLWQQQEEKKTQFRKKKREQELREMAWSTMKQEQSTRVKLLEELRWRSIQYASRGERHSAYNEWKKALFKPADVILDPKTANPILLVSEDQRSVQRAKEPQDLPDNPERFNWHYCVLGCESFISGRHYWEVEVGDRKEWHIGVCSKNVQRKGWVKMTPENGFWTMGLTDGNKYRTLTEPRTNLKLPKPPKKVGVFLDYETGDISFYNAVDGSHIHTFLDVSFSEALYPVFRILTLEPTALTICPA

Columns and labels:
[1] = target: BTN3A1 antigen (Sino Biological cat. no. 15973-H08H) (human) (UniProt O00481); assay: SPR Biacore
[2] = target: human BTN3A, endogenous on human cells (PBMCs; Daudi cells) (human) (UniProt O00481); assay: flow cytometry on PBMCs
[3] = target: human BTN3A, endogenous on human cells (PBMCs; Daudi cells) (human) (UniProt O00481); assay: flow cytometry on human PBMCs
[4] = target: BTN3A1 antigen (Sino Biological cat. no. 15973-H08H) (human) (UniProt O00481); assay: SPR Biacore T200, multi-cycle kinetics

Measured: binding

B1: 103.2 humanized variant VH4/Vκ4 (antibody, V domains shown)
VH: QVQMQQSGAEVKKPGASVKVSCKASGYAFTSYLIHWIKQRPGQGLEWIGVINPRSGDSHYNEKFKDRVTMTADQSISTAYMELSRLRSDDTAVYYCARSDYGAYWGQGTLVTVSS
VL: EIVLTQSPATLSVSPGERATLSCRASQSISNNLHWYQQKPGQAPRLLIKYASQSAFGIPARFSGSGSGTEFTLTISSLQSEDFAVYFCQQSNSWPHTFGQGTKLEIK
notes: also called H4K4; 103.2 VH4/V κ 4
binds: all assays above
